Measurements taken from article PMC8682746.
These are yes or no findings as the source states them, for the method shown. In cells and extracts the contact can be indirect. A result given as binding can be weak or reduced; the word gives no strength.

The chains behind the UniProt entries cited, without tags or fusion partners. Where a name states a change or a piece, a line headed by the entry shows the natural chain unless it says otherwise.
UniProt Q386L5: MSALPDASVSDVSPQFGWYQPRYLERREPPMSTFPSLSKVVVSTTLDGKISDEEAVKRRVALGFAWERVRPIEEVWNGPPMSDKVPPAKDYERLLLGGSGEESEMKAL
UniProt Q581Y9: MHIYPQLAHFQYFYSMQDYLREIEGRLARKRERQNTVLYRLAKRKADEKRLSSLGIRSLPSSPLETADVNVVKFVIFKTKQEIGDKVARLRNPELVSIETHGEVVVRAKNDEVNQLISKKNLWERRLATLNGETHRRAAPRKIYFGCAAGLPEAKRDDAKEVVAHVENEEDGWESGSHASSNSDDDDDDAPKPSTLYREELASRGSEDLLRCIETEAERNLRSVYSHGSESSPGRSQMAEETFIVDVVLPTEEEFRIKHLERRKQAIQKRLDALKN
UniProt Q38A09: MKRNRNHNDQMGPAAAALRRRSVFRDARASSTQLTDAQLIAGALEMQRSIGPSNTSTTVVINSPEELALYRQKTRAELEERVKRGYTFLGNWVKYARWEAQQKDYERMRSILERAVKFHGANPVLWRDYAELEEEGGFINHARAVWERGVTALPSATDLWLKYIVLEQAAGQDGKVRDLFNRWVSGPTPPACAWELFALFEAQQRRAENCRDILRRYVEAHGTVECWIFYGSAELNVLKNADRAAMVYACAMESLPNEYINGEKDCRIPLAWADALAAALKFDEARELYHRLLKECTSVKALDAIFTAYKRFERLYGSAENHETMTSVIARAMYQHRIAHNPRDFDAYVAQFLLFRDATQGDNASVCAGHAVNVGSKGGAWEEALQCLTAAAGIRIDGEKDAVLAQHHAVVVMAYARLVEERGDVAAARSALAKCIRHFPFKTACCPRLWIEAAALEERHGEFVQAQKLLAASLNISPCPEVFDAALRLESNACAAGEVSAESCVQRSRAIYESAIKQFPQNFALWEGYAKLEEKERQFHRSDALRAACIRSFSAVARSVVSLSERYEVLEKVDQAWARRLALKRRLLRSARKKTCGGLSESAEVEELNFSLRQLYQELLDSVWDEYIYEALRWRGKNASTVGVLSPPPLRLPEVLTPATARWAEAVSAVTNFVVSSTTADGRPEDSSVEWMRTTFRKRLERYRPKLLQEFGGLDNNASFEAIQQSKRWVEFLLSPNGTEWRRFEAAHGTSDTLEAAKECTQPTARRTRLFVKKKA

Target: PRC5-PTP (Trypanosoma brucei) (UniProt Q386L5)
Experiment: co-sedimentation; final eluate of a standard PRC5-PTP tandem affinity purification sedimented through a 4 ml linear 10-40% sucrose gradient by ultracentrifugation, 20 fractions, SDS-PAGE, SYPRO Ruby; bands identified by LC/MS/MS; peak in fractions 13 and 14

Row | Substance | binding
1 | ISY1 (from UniProt Q581Y9) | binds
2 | SYF3 (from UniProt Q38A09) | binds
